At least one structure is not confirmed: it was looked up by name or label, or the drawing left a doubt.
Tested on: patients with fasting triglyceride levels >200 mg/dl and <500 mg/dl despite statin therapy
Experiment: 12-week study: plasma fatty acids (EPA concentration, FADI ratios) by gas chromatography/flame ionization detection
Type: in vivo, human
Conditions: 4 g/day, placebo-adjusted, 12 weeks; listed as ethyl eicosapentaenoate
Method: A multi-center, placebo-controlled, randomized, double-blind, 12-week study was performed to evaluate the efficacy and safety of >96% E-EPA in patients with fasting triglyceride levels >200 mg/dl and <500 mg/dl despite statin therapy (the mean of two qualifying entry values needed to be >185 mg/dl and at least one of the values needed to be >200 mg/dl). The primary objective of the study was to determine the efficacy of >96% E-EPA 2 g daily and 4 g daily, compared to placebo, in lowering fasting TG levels in patients with high risk for cardiovascular disease and with fasting TG levels 200 mg/dl and <500 mg/dl, despite treatment to LDL-C goal on statin therapy. The secondary objectives of this study were the following: • 1. To determine the safety and tolerability of >96% E-EPA 2 g daily and 4 g daily; • 2. To determine the effect of >96% E-EPA on lipid and apolipoprotein profiles including total cholesterol (TC), non-high-density lipoprotein cholesterol (non-HDL-C), low density lipoprotein cholesterol (LDL-C), high density lipoprotein cholesterol (HDL-C), and […]; • 3. To determine the effect of >96% E-EPA on lipoprotein associated phospholipase A2 (Lp-PLA2) from baseline to week 12; • 4. To determine the effect of >96% E-EPA on low-density lipoprotein (LDL) particle number and size; • 5. […]

For `CC/C=C\C/C=C\C/C=C\C/C=C\C/C=C\CCCC(=O)OCC` [AMR101, ethyl eicosapentaenoate], the “FADI-16 (Palmitoleic acid/Palmitic acid, C16:1/C16:0), % Change, Plasma” value was “significantly reduced” and the “FADI-18 (Oleic acid/Stearic Acid, C18:1/C18:0), % Change, Plasma” value was “significantly reduced”.

From patent US11285127B2, “Compositions and methods for lowering triglycerides without raising LDL-C levels in a subject on concomitant statin therapy” (Amarin Pharmaceuticals Ireland Limited, priority 2013, dated 2022)
